Article PMC2627925
No constants are given. Whether binding was seen depends on the method and setting. In cells and extracts the contact can be indirect. Some binding calls cover weakened binding; strength is not graded here.

The chains behind the UniProt entries cited, without tags or fusion partners.
UniProt Q9UKB1: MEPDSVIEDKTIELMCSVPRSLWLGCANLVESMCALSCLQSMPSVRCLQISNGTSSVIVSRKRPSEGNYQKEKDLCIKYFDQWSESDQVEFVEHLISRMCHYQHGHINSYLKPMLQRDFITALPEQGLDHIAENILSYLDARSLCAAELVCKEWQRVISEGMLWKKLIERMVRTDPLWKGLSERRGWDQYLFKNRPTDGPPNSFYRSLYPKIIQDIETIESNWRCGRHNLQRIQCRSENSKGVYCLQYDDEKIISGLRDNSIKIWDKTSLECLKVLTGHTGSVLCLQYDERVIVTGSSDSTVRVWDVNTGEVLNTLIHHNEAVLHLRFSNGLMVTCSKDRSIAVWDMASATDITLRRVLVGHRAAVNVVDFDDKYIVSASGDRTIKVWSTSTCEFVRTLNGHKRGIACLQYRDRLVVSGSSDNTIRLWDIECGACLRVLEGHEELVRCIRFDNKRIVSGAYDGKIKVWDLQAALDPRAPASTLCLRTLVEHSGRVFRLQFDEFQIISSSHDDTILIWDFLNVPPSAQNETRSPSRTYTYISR
UniProt Q84940: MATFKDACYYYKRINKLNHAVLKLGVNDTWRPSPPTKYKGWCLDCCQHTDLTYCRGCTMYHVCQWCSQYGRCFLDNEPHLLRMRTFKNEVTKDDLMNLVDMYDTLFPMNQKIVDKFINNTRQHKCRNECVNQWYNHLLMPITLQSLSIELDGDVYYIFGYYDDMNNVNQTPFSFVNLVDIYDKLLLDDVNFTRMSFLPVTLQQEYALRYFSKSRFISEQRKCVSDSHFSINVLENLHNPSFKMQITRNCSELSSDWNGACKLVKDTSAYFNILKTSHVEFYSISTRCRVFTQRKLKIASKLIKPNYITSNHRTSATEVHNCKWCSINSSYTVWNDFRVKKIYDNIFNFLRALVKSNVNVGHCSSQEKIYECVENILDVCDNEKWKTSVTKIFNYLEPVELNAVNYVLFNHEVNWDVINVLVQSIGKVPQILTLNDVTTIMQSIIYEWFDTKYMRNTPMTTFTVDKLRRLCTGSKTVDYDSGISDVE

What was measured:
[1] = target: Flag-tagged β-transducin repeat containing protein (β-TrCP), from pCMV-Flag-β-TrCP2 (UniProt Q9UKB1); experiment: co-IP; HEK293 cells transfected with pCMV-Flag-β-TrCP2, infected with three pfu/cell of OSU, harvested eight hpi in 50 mM Tris-HCl pH 7.5, 150 mM NaCl, 1% Triton X-100, 1 mM EDTA; anti-FLAG M2-Agarose; blots with anti-Flag and anti-OSU NSP1
[2] = target: Flag-tagged β-transducin repeat containing protein (β-TrCP), from pCMV-Flag-β-TrCP2 (UniProt Q9UKB1); experiment: co-IP; 293 cells co-transfected with pFlag-β-TrCP and pN-NSP1 or pO-NSP1; 10 µM MG132 added 40 h post-transfection for eight hours; lysate precipitated with anti-FLAG M2 Agarose Affinity Resin; blots with anti-Flag and anti-myc

Substance	binding [1]	binding [2]
NSP1 made in OSU infected cells (porcine rotavirus strain OSU) (from UniProt Q84940 1-486)	binds	
OSU NSP1 (rotavirus nonstructural protein NSP1 of porcine strain OSU), myc-tagged, from pO-NSP1 (from UniProt Q84940 1-486)		binds
